Measured values taken from publication PMC11066040, “Nuclear phosphoinositide signaling promotes YAP/TAZ-TEAD transcriptional activity in breast cancer” (The EMBO Journal, 2024).
Results are given in words; binding and its absence hold for the method and conditions named. For some of these results: Binding seen in cells or lysates may run through a third protein. Some entries that bind do so weakly or less than the wild type. For some of these results: Sequences can lack the tags named with a protein.

By UniProt entry, the sequences of proteins in these tests, tags left out.
UniProt Q8NFU5: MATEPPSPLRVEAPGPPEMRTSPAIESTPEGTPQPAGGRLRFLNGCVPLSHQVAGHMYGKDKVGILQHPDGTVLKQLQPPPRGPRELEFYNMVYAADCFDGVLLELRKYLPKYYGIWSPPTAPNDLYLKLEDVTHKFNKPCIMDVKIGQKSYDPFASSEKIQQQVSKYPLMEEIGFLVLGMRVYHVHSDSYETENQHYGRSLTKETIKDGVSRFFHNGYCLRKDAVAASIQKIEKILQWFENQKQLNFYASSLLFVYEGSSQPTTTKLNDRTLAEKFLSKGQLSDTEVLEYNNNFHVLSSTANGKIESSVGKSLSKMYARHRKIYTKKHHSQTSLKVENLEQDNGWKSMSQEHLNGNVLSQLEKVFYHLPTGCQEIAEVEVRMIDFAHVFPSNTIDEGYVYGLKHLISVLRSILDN
UniProt Q99755: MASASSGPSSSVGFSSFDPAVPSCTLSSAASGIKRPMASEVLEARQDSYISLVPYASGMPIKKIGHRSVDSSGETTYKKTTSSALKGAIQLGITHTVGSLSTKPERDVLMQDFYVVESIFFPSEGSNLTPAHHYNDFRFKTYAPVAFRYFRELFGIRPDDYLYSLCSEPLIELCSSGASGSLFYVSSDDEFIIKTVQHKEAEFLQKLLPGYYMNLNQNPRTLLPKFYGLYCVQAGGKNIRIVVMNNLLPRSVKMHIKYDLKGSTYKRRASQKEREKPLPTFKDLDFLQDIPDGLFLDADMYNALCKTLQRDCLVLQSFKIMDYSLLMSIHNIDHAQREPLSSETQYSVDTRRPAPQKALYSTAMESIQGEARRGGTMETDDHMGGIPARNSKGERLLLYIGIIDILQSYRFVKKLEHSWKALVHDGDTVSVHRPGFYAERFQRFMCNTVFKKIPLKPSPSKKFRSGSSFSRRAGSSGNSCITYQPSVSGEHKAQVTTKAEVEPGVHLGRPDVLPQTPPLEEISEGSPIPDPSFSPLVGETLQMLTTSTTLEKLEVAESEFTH

What was measured:
[1] = biological target: GST-tagged YAP (Yes-associated protein 1), wild type (UniProt P46937); test: pull-down; 0.1 μM GST alone or GST-YAP (WT, 2Q, 3Q) prebound to glutathione beads, incubated with 0.05 μM His6-tagged PIPKIα or IPMK, 1 h at 25 °C; immunoblotting; both purified
GST-3Q mutant YAP = GST-3Q mutant YAP (UniProt P46937); test: as above
HA-tagged p73 = biological target: T1, HA-tagged p73 (UniProt O15350); test: co-IP; tagged proteins co-transfected in HEK293 cells for 48 h; lysis in 1% Brij58, 150 mM NaCl, 20 mM HEPES pH 7.4; precipitated by anti-HA, anti-Myc or anti-Flag antibody, partner detected by its tag; in one panel cells treated with 5 μM LPA for 2 h
T1 sequence: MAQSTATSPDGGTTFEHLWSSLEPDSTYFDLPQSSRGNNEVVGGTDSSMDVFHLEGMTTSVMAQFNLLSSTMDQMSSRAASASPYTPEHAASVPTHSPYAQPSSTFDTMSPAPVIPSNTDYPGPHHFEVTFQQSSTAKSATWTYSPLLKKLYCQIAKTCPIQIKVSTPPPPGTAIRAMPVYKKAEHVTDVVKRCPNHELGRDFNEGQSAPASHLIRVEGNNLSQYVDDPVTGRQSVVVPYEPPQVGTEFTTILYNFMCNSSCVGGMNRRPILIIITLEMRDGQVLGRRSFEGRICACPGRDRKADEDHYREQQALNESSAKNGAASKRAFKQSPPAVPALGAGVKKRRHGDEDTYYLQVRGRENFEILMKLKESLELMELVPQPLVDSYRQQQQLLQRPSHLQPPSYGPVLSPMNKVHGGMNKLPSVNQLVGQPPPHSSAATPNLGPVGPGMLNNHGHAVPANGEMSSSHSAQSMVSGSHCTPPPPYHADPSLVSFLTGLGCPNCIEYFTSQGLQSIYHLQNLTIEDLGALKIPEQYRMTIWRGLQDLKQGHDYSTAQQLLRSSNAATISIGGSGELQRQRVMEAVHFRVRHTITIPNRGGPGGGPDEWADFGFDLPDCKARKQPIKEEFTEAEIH

[2] = biological target: endogenous YAP (Yes-associated protein 1) (human (endogenous in MDA-MB-231)) (UniProt P46937); test: co-IP; endogenous YAP immunoprecipitated from lysates of serum-starved MDA-MB-231 cells
[3] = biological target: endogenous YAP (Yes-associated protein 1) (human (endogenous in MDA-MB-231)) (UniProt P46937); test: proximity ligation; fixed MDA-MB-231 cells, serum-starved and then stimulated with 10% serum for 1 h; endogenous proteins; PLA puncta counted by confocal microscopy
[4] = biological target: endogenous YAP (Yes-associated protein 1) (human (endogenous in MDA-MB-231)) (UniProt P46937); test: co-IP; endogenous YAP immunoprecipitated from MDA-MB-231 lysates; cells stimulated with 10% serum or 5 μM LPA for 1 h after starvation, or grown in 10% serum and treated with LPA, SDF-1α or EGF for 90 min
[5] = biological target: endogenous YAP (Yes-associated protein 1) (human (endogenous in MDA-MB-231)) (UniProt P46937); test: proximity ligation; fixed serum-starved MDA-MB-231 cells; endogenous proteins; PLA puncta counted by confocal microscopy
[6] = biological target: Myc-tagged IPMK, wild type (UniProt Q8NFU5); test: co-IP; tagged proteins co-transfected in HEK293 cells for 48 h; lysis in 1% Brij58, 150 mM NaCl, 20 mM HEPES pH 7.4; precipitated by anti-HA, anti-Myc or anti-Flag antibody, partner detected by its tag; in one panel cells treated with 5 μM LPA for 2 h

Substance | binding (HA-tagged p73) | binding [2] | binding [3] | binding [4] | binding [5] | other results
His6-tagged IPMK (inositol polyphosphate multikinase), wild type (from UniProt Q8NFU5 1-416) (enzyme) |  |  |  |  |  | binding [1]: binds; binding (GST-3Q mutant YAP): binds
endogenous IPMK (from UniProt Q8NFU5 1-416) (enzyme) |  | binds weakly | binds | binds | binds weakly | 
Flag-tagged YAP, wild type (from UniProt P46937 1-504) | binds |  |  |  |  | binding [6]: binds

Second part, led by results:

binding (HA-tagged p73) | binding [2] | binding [3] | binding [4] | binding [5] | Substance | other results
binds |  |  |  |  | Flag-3Q mutant YAP (from UniProt P46937 1-504) | 
 | binds weakly | binds | binds | binds weakly | endogenous PIPKIα (from UniProt Q99755 1-562) (enzyme) | 
